Screen size: about 320,000 compounds; about 2,100 (0.66%) were called active. Inconclusive results, whose numbers are uncertain, are shown with a selection of clear calls. Calls come from the whole dose curve; as a rule, active = well fitted inhibition curve with a large enough effect in the signal ratio, with a control signal flat (not every such curve was filed as active); inconclusive = small, poorly fitted or top-dose-only effect, or effect the other way, or a change in a side signal; inactive = flat fitted curve, though single readings scatter; the % refers to the signal ratio. A potency beside an inconclusive call is a rough fit, not a confirmed value.
Test: qHTS Assay for Lipid Storage Modulators in Drosophila S3 Cells
Details: BODIPY lipid droplet fluorescence, 18-24 h, cells fed with added oleic acid; lipid storage change, negative = inhibition: at 46.1 µM (top of the series) unless noted
Summary of the method: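 Drosophila S3 cells got compounds at several concentrations plus oleic acid (400 uM solution). Laser-scanning cytometry with 488 nm excitation read lipid droplets at 500-530 nm and cells at 575-640 nm. Percent activity was relative to 20 uM Triacsin C.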
% is set by controls: 0 for no effect and ±100 for the full control effect; potency is the fitted concentration of half-maximal effect.

Q: Which Potency does the source give for `O=S1(=O)CCC(NC(=S)Nc2ccc(Cl)cc2)C1` (centres undefined) here?
A: inconclusive: 0.366 µM [activator, partial curve, poor fit]

Q: For `CCOC(=O)Cn1nnc(-c2ccc(SC)cc2)n1`, which lipid storage change, negative = inhibition is on record?
A: inconclusive: 1.15%

Q: For `O=C(COC(=O)C1=COCCO1)Nc1cccc(Oc2ccccc2)c1`, which Potency is on record?
A: inconclusive: 32.6 µM [activator, single point]

Q: Which Potency does the source give for `CCOc1ccc(NC(=O)c2ccc(Cn3nc(C)cc3C)o2)cc1` here?
A: inconclusive: 11.6 µM [falling, single point]

Q: For `CCc1ccccc1NC(=O)CCC(=O)OCC(=O)c1ccc(-c2ccccc2)cc1`, which lipid storage change, negative = inhibition is on record?
A: inconclusive: -40.9%

Q: For `COc1ccc(OC)c(S(=O)(=O)N/N=C\c2cn(CC(N)=O)c3ccccc23)c1`, which Potency is on record?
A: inconclusive: 0.0651 µM [activator, full curve, poor fit]

Q: Which lipid storage change, negative = inhibition does the source give for `Cc1c(CC(Cl)(Cl)Cl)c2c(n1O)CC(C)(C)CC2=O` here?
A: inconclusive: -14.8%

Q: With `O=C(Nc1ccc(Nc2ccccc2)cc1)C(Cl)Cl` as the molecule, how does the Potency read?
A: inconclusive: 4.61 µM [falling, full curve, poor fit]

Q: For `O=C1c2cccc3cccc(c23)C(=O)N1Nc1ccccc1`, which “lipid storage change, negative = inhibition” value is on record?
A: inactive: -24.6%

Q: With `COc1ccccc1CN(C)C(=O)c1cccc(S(=O)(=O)N2CCc3ccccc3C2)c1` as the molecule, how does the lipid storage change, negative = inhibition read?
A: inconclusive: -34.9%

Q: For `COc1ccccc1NC(=O)C(=O)NCc1ccccc1Cl`, which lipid storage change, negative = inhibition is on record?
A: inconclusive: 24.7%

Q: For `COc1ccc(NC(=O)COC(=O)c2c3c(nc4ccccc24)CCCC3)cc1`, which “lipid storage change, negative = inhibition” value is on record?
A: inactive: -1.44%

Q: For `Cc1ccc(NC(=O)C(=O)NCc2ccc(/C=C(/C#N)C(=O)NCc3cccnc3)o2)cc1C`, which lipid storage change, negative = inhibition is on record?
A: inconclusive: 16.2%

Q: Which lipid storage change, negative = inhibition does the source give for `Cc1ccc2c(c1)c1c(n2CC(O)Cn2nc(C)c(Br)c2C)C(=O)CCC1` (centres undefined) here?
A: inconclusive: -79.6%

Q: Which lipid storage change, negative = inhibition does the source give for `N#Cc1c(F)cccc1N1CCN(Cc2ccc3c(c2)OCO3)CC1` here?
A: inconclusive: 0.893%

Q: For `COc1ccc(NC(=O)C2CCC(CNc3c(N4CCC(C)CC4)c(=O)c3=O)CC2)cc1OC` (centres undefined), which lipid storage change, negative = inhibition is on record?
A: inconclusive: -38.8%

Q: For `CS(=O)(=O)N1CCN(c2cnn(-c3ccccc3)c(=O)c2Cl)CC1`, which lipid storage change, negative = inhibition is on record?
A: inconclusive: -19.1%

Q: With `Cc1cnc(C(=O)Nc2ccc3c(c2)CCC3)cn1` as the molecule, how does the Potency read?
A: inconclusive: 3.26 µM [activator, partial curve]

Q: With `COc1ccc(N)c2c1OCCC2=O` as the molecule, how does the Potency read?
A: inconclusive: 29.1 µM [cytotoxic, single point]

Q: Which lipid storage change, negative = inhibition does the source give for `O=S(=O)(/N=S1/CC=CCN1S(=O)(=O)c1ccccc1)c1ccccc1` (centres undefined) here?
A: inconclusive: -110%

Q: Which lipid storage change, negative = inhibition does the source give for `Cn1c(CCCCCN)nc2ccccc21` here?
A: inconclusive: -1.63%

Q: Which lipid storage change, negative = inhibition does the source give for `CC1=CC(=O)C=C(C)C1=NOc1ccccc1[N+](=O)[O-]` here?
A: inconclusive: -6.47%

Q: Which lipid storage change, negative = inhibition does the source give for `COc1cc(/C=N/NC(=S)NCC2CCCO2)cc(OC)c1OC` (centres undefined) here?
A: inconclusive: 13.3%

Q: With `CCNC(=O)c1cc2c(=O)n3cccc(C)c3nc2n(Cc2ccc(C)cc2)c1=N` as the molecule, how does the lipid storage change, negative = inhibition read?
A: inconclusive: 14.6%

Q: For `CC1CC1C(=O)Nc1ccc(-c2ccccc2)cc1` (centres undefined), which lipid storage change, negative = inhibition is on record?
A: inconclusive: 30.3%

Q: Which lipid storage change, negative = inhibition does the source give for `COc1ccccc1NC(=O)c1ccc(NC(=O)CN2C(=O)CN(C)C2=O)cc1` here?
A: inconclusive: 24.1%

Q: For `COc1cccc(CCNS(=O)(=O)CCNC(=O)c2cccc(OC)c2)c1`, which lipid storage change, negative = inhibition is on record?
A: inconclusive

Q: For `O=C(c1ccccc1)N1CCN(CC(O)COC2CCCCC2)CC1` (centres undefined), which “lipid storage change, negative = inhibition” value is on record?
A: inactive: 0.0284%

Q: With `CN(CC1CCN(CCc2cccc(C(F)(F)F)c2)CC1)C(=O)c1ccc(F)cc1F` as the molecule, how does the lipid storage change, negative = inhibition read?
A: inconclusive: 32.1%

Q: Which lipid storage change, negative = inhibition does the source give for `Cc1c(C=O)c2ccccn2c1C(=O)c1cccc([N+](=O)[O-])c1` here?
A: inconclusive: -17.4%

Q: For `O=C(/C=C/c1ccccc1)NC(NC(=S)Nc1cccc(Cl)c1)C(Cl)(Cl)Cl` (centres undefined), which Potency is on record?
A: inconclusive: 29.1 µM [falling, single point]

Q: For `Cc1ccccc1N(C(=O)CNC(=O)c1ccco1)C(C(=O)NC1CCCCC1)c1cccnc1` (centres undefined), which lipid storage change, negative = inhibition is on record?
A: inconclusive: -12.6%

Q: With `CCN(CC)S(=O)(=O)c1ccc(Oc2ccc(S(=O)(=O)N(CC)CC)cc2)cc1` as the molecule, how does the lipid storage change, negative = inhibition read?
A: inconclusive: 9.33%

Q: With `NNC(=O)c1nc(-c2ccccc2)cc(-c2ccccc2)n1` as the molecule, how does the lipid storage change, negative = inhibition read?
A: inconclusive: -33.1%

Q: For `O=C(Cn1cccc1)Nc1ccc(F)cc1F`, which lipid storage change, negative = inhibition is on record?
A: inconclusive: -8.96%

Q: Which lipid storage change, negative = inhibition does the source give for `Cc1cc(C)c[n+](CC(=O)c2cc3ccccc3oc2=O)c1` here?
A: inconclusive: 14.3%

Q: With `Cc1cc(C(=O)NNC(=O)c2ccc(Cl)cc2Cl)c(C)o1` as the molecule, how does the lipid storage change, negative = inhibition read?
A: inconclusive: 39.5%

Q: With `CCOC(=O)c1nn(-c2ccc(C)cc2)c(=O)cc1OCC(=O)N1CCN(c2ccccc2)CC1` as the molecule, how does the lipid storage change, negative = inhibition read?
A: inconclusive: 34%

Q: For `COC(=O)Cn1c(=NC(=O)C(C)C)sc2c(C)cc(C)cc21`, which lipid storage change, negative = inhibition is on record?
A: inconclusive: 11.4%

Q: With `COc1ccc2c(c1)CC/C2=N\NC(=O)c1ccccc1` as the molecule, how does the lipid storage change, negative = inhibition read?
A: inconclusive: 29.7%

Q: With `COc1cc(C(=O)NCc2ccccn2)ccc1OCc1c(C)noc1C` as the molecule, how does the Potency read?
A: inconclusive: 5.8 µM [rising, partial curve]

Q: Which lipid storage change, negative = inhibition does the source give for `O=C(CNC(=O)c1ccco1)OCc1ccc(Br)cc1` here?
A: inconclusive: -2.74%

Q: For `COC1=CC(=O)CC(C)C12Oc1cc(OC)cc(OC)c1C2=O` (centres undefined), which lipid storage change, negative = inhibition is on record?
A: inconclusive: -0.67%

Q: For `CNC(=O)c1c(NC(=O)C2=COCCO2)sc2c1CCCC2`, which Potency is on record?
A: inconclusive: 20.6 µM [falling, single point]

Q: Which lipid storage change, negative = inhibition does the source give for `CCCCCCCNC1=CC(=O)CC(c2ccco2)C1` (centres undefined) here?
A: inconclusive: -21.8%

Q: Which Potency does the source give for `Cc1ccccc1OCCC(=O)OCC(=O)NCCc1ccc(S(N)(=O)=O)cc1` here?
A: inconclusive: 0.326 µM [falling, full curve, poor fit]

Q: Which lipid storage change, negative = inhibition does the source give for `CCOC(=O)[C@H]1[C@H]2COc3ccc(Br)cc3[C@@H]2N2C(=O)CN(Cc3ccccc3)C(=O)[C@@]12C` here?
A: inconclusive: 16%

Q: With `O=C(O)C(Cc1c[nH]c2ccccc12)NS(=O)(=O)c1ccc(Cl)cc1` (centres undefined) as the molecule, how does the Potency read?
A: inconclusive: 0.0046 µM [cytotoxic, full curve, poor fit]

Q: For `O=C(Nc1nccs1)c1cn(-c2ccccc2)nc1-c1ccncc1`, which lipid storage change, negative = inhibition is on record?
A: inconclusive: -44.3% [cytotoxic] [at 0.00295 µM]

Q: With `CCOC(=O)c1ccc(N2C(=O)Cc3ccccc3C2=O)cc1` as the molecule, how does the lipid storage change, negative = inhibition read?
A: inconclusive: 49.8%

Q: With `COc1ccc([N+](=O)[O-])cc1NC(=O)CSCc1ccc(Br)cc1` as the molecule, how does the lipid storage change, negative = inhibition read?
A: inconclusive: -1.58%

Q: Which lipid storage change, negative = inhibition does the source give for `COc1ccc(-c2nnc(SCC(=O)Nc3ccc4c(c3)OCCO4)n2N)cc1OC` here?
A: inconclusive: 33.9%

Q: With `O=Cc1c(Cl)nc2ccccn12` as the molecule, how does the “lipid storage change, negative = inhibition” value read?
A: inactive: -10.1%

Q: With `COc1ccccc1N1CCN(C(=O)CSc2nnc3n2C(C)(C)Cc2ccccc2-3)CC1` as the molecule, how does the Potency read?
A: inconclusive: 4.11 µM [activator, single point]

Q: With `COc1cc2c(C(=O)N3CCN(C4CCCCC4)CC3)cn(CC(C)C)c(=O)c2cc1OC` as the molecule, how does the lipid storage change, negative = inhibition read?
A: inconclusive: 6.96%

Q: Which lipid storage change, negative = inhibition does the source give for `CNC(=O)c1ccc(Nc2nnc(-c3ccc(C)c(S(=O)(=O)NCC4CCCO4)c3)c3ccccc23)cc1` (centres undefined) here?
A: inconclusive: -34.6%

Q: Which lipid storage change, negative = inhibition does the source give for `COc1cc2c(cc1OC)C(NC(=O)C(F)(F)F)C/C2=N\O` (centres undefined) here?
A: inconclusive: -14.4%

Q: For `COC(=O)CN=Cc1c(O)n(-c2ccc(Cl)cn2)c(=O)c2ccccc12`, which lipid storage change, negative = inhibition is on record?
A: inconclusive: 24.4%

Q: Which lipid storage change, negative = inhibition does the source give for `CN(C)S(=O)(=O)c1ccc(SCC(=O)Nc2ccc3c(c2)OCCO3)nc1` here?
A: inconclusive

Q: With `O=C(CN1C(=O)NC2(CCCC2)C1=O)Nc1cc(Cl)ccc1Oc1ccccc1` as the molecule, how does the “lipid storage change, negative = inhibition” value read?
A: inactive: 23.3%

Q: With `CCCCNC(=O)CSc1nc2cc(OC)c(OC)cc2c(=O)n1Cc1ccc(OC)cc1` as the molecule, how does the lipid storage change, negative = inhibition read?
A: inconclusive: 9.07%

Q: With `CCC(C)NC(=O)CCC(=O)NNc1nc2ccccc2c2nc(C)nn12` (centres undefined) as the molecule, how does the lipid storage change, negative = inhibition read?
A: inconclusive: -11.3%

Q: With `CCOC(=O)c1ccc2nc(C)c(CC)c(Cl)c2c1` as the molecule, how does the lipid storage change, negative = inhibition read?
A: inconclusive: 7.99%

Q: Which lipid storage change, negative = inhibition does the source give for `Cc1ccc(C2=NS(=O)(=O)N(C)C(C(=O)NCc3cccs3)=C2)cc1` here?
A: inconclusive: -21.5%

Q: With `COC(=O)Nc1ccc(NC(C)=O)cc1` as the molecule, how does the Potency read?
A: inconclusive: 4.11 µM [falling, full curve, poor fit]

Q: For `CCOc1ccc(NS(=O)(=O)c2ccc(NS(=O)(=O)c3ccccc3)cc2)cc1`, which Potency is on record?
A: inconclusive: 2.59 µM [activator, partial curve]

Q: For `CC1(C)CC(=O)C2=C(C1)N(c1ccc(Cl)cc1)C(=O)C2(O)C(F)(F)F` (centres undefined), which Potency is on record?
A: inconclusive: 0.92 µM [falling, single point]

Q: For `CCOC(=O)C(=O)N=Nc1c(O)[nH]c2ccccc12`, which lipid storage change, negative = inhibition is on record?
A: inconclusive: 5.96%

Q: With `CCOc1ccccc1CSc1nc2ccccc2[nH]1` as the molecule, how does the lipid storage change, negative = inhibition read?
A: inconclusive: 14.3%

Q: For `S=C(c1ccccc1)N1CCCC1`, which Potency is on record?
A: inconclusive: 0.0046 µM [activator, full curve, poor fit]

Q: For `CCS(=O)(=O)c1nc(S(=O)(=O)c2ccc(C)cc2)c(N2CCOCC2)s1`, which lipid storage change, negative = inhibition is on record?
A: inconclusive: -8.62%

Q: For `CC1(NC(=O)C2CCCCC2)CCS(=O)(=O)C1` (centres undefined), which lipid storage change, negative = inhibition is on record?
A: inconclusive: -30.8%

Q: For `O=C(NCC1CCCO1)C1C2C=CC3(CN(Cc4cccs4)C(=O)C13)O2` (centres undefined), which lipid storage change, negative = inhibition is on record?
A: inconclusive: -4.67%

Q: Which lipid storage change, negative = inhibition does the source give for `N#CC(C(=O)OC1CCCCC1)c1nc2ccccc2nc1N1CCCCC1` (centres undefined) here?
A: inconclusive: -32.2%

Q: Which “lipid storage change, negative = inhibition” value does the source give for `O=C(Nc1ccncc1)C1CCN(S(=O)(=O)c2cccc(C(F)(F)F)c2)CC1` here?
A: inactive: 9.54%

Q: Which Potency does the source give for `COc1ccc(Cl)cc1NC(=O)Cn1nnc(C(=O)NCc2ccc3c(c2)OCO3)c1N` here?
A: inconclusive: 6.51 µM [falling, partial curve, poor fit]

Q: With `O=C(NCc1ccco1)c1cccc(S(=O)(=O)N2CCCC2)c1` as the molecule, how does the lipid storage change, negative = inhibition read?
A: inconclusive: 39%

Q: For `CCCc1c(C(=O)N/N=C/C(C)=C/c2ccco2)nnn1-c1nonc1N`, which Potency is on record?
A: inconclusive: 20.6 µM [falling, single point]

Q: With `CC(C)(C)c1ccc(OCC(=O)N(Cc2cccs2)C2CCS(=O)(=O)C2)cc1` (centres undefined) as the molecule, how does the lipid storage change, negative = inhibition read?
A: inconclusive: -62.6%
